Results taken from patent US20160060307A1 (KYUNGPOOK NATIONAL UNIVERSITY INDUSTRY ACADEMIC COOPERATION …, published 2016).
No constants are given. Whether binding was seen depends on the method and setting. Binding calls can cover weak binding; strength is not graded here. Values belong to the binder of their own block, whether it stands above or below them.

Assays:
[1] = target: integrin alphavbeta3 protein; test: SPR, integrin alphavbeta3 immobilised
[2] = target: integrin alphavbeta3 protein; test: SPR, integrin alphavbeta3 protein immobilised on carboxymethyl dextran chip, ferritin in flow, 0.651-10.416 nM
[3] = target: integrin alphavbeta3 protein; test: SPR, integrin alphavbeta3 protein immobilised on carboxymethyl dextran chip, ferritin in flow, 0.651-5.208 nM

binding [1]: binds
binding [2]: binds
B1: FTL-GRGDSP-AP1: ferritin having inserted GRGDSP and AP1 peptides (designed binder, not shown: small tags and cut ends)
chain: MGRGDSPGGGSGMSSQIRQNYSTDVEAAVNSLVNLYLQASYTYLSLGFYFDRDDVALEGVSHFFRELAEEKREGYERLLKMQNQRGGRALFQDIKKPAEDEWGKTPDAMKAAMALEKKLNQALLDLHALGSARTDPHLCDFLETHFLDEEVKLIKKMGDHLTNLHRGSRKRLDRNGGPEAGLGEYLFERLTLKHD
modifications: One monomer is given; it assembles into a 24-mer ferritin cage.

binding [3]: binds
binding [1]: binds
B2: FTL-RGD-AP1: ferritin having inserted RGD and AP1 peptides (designed binder, not shown: small tags and cut ends)
chain: MRGDGGGSGMSSQIRQNYSTDVEAAVNSLVNLYLQASYTYLSLGFYFDRDDVALEGVSHFFRELAEEKREGYERLLKMQNQRGGRALFQDIKKPAEDEWGKTPDAMKAAMALEKKLNQALLDLHALGSARTDPHLCDFLETHFLDEEVKLIKKMGDHLTNLHRGSRKRLDRNGGPEAGLGEYLFERLTLKHD
modifications: One monomer is given; it assembles into a 24-mer ferritin cage.
